According to publication PMC7560216:

Legend:
[1] = molecular target: T1, Apl5-TurboID-V5 (S. cerevisiae) (UniProt Q08951); experiment: proximity labelling; Apl5-TurboID-V5 in the wild-type background, YPD, 100 μM biotin for 3 h; denaturing lysis, streptavidin beads, label-free mass spectrometry against wild-type cells; n = 3
T1 sequence: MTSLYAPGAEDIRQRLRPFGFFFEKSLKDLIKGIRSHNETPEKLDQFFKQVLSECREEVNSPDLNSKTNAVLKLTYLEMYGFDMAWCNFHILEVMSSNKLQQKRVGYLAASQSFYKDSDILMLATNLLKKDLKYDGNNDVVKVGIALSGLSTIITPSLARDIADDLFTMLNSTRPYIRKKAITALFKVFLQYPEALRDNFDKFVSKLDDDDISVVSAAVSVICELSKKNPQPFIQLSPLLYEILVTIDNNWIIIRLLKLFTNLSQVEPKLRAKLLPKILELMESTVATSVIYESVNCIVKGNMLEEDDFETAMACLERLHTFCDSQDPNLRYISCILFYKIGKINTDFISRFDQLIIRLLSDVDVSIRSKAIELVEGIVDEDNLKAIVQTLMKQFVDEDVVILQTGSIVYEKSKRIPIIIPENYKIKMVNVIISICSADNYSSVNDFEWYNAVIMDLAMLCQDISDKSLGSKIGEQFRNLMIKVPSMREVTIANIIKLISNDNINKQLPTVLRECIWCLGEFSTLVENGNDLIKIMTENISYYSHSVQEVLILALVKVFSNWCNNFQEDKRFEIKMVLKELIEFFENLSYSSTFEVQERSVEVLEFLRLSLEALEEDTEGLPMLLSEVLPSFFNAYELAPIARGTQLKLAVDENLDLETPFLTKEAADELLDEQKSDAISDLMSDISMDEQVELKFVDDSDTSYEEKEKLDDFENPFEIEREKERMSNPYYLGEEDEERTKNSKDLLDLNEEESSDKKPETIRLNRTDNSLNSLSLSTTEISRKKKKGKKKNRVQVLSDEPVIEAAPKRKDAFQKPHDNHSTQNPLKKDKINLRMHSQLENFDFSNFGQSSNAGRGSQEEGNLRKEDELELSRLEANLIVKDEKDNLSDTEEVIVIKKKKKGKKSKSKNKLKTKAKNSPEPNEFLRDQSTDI

[2] = molecular target: T1, Apl5-TurboID-V5 (S. cerevisiae); experiment: proximity labelling; Apl5-TurboID in a GAL1pr-Vps41-GFP-Fis1 background, cells grown in YPG; streptavidin-biotin pulldown, label-free mass spectrometry against control cells; n = 3

Binder | binding [1] | binding [2]
Yck3 (protein, UniProt P39962 1-524) MSQRSSQHIVGIHYAVGPKIGEGSFGVIFEGENILHSCQAQTGSKRDSSIIMANEPVAIKFEPRHSDAPQLRDEFRAYRILNGCVGIPHAYYFGQEGMHNILIIDLLGPSLEDLFEWCGRKFSVKTTCMVAKQMIDRVRAIHDHDLIYRDIKPDNFLISQYQRISPEGKVIKSCASSSNNDPNLIYMVDFGMAKQYRDPRTKQHIPYRERKSLSGTARYMSINTHFGREQSRRDDLESLGHVFFYFLRGSLPWQGLKAPNNKLKYEKIGMTKQKLNPDDLLLNNAIPYQFATYLKYARSLKFDEDPDYDYLISLMDDALRLNDLKDDGHYDWMDLNGGKGWNIKINRRANLHGYGNPNPRVNGNTARNNVNTNSKTRNTTPVATPKQQAQNSYNKDNSKSRISSNPQSFTKQQHVLKKIEPNSKYIPETHSNLQRPIKSQSQTYDSISHTQNSPFVPYSSSKANPKRSNNEHNLPNHYTNLANKNINYQSQRNYEQENDAYSDDENDTFCSKIYKYCCCCFCCC | binds | –
Meh1 (Ego1) (protein, UniProt Q02205 1-184) MGAVLSCCRNHSGEENEALLREQQAGYGSQGNANDEYDAEQMRLKEHEHEQKLLAREQELRDIVANTNDKLIDISMINNSGIVIQGTDLQEALDKRQQEEGGDSREDERSAGDDNLSGHSVPSSGSAQATTHQTAPRTNTFTLLTSPDSAKISKEQLKKLHSNILNEIFSQSQVNKPGPLTVPF | binds | binds
Vac7 (protein, UniProt P53950 1-1165) MTEEDRKLTVETETVEAPVANNLLLSNNSNVVAPNPSIPSASTSTSPLHREIVDDSVATANTTSNVVQHNLPTIDNNLMDSDATSHNQDHWHSDINRAGTSMSTSDIPTDLHLEHIGSVSSTNNNSNNALINHNPLSSHLSNPSSSLRNKKSSLLVASNPAFASDVELSKKKPAVISNNMPTSNIALYQTARSANIHGPSSTSASKAFRKASAFSNNTAPSTSNNIGSNTPPAPLLPLPSLSQQNKPKIIERPTMHVTNSREILLGENLLDDTKAKNAPANSTTHDNGPVANDGLRIPNHSNADDNENNNKMKKNKNINSGKNERNDDTSKICTTSTKTAPSTAPLGSTDNTQALTASVSSSNADNHNNNKKKTSSNNNGNNSNSASNKTNADIKNSNADLSASTSNNNAINDDSHESNSEKPTKADFFAARLATAVGENEISDSEETFVYESAANSTKNLIFPDSSSQQQQQQQQPPKQQQQQQNHGITSKISAPLLNNNKKLLSRLKNSRHISTGAILNNTIATISTNPNLNSNVMQNNNNLMSGHNHLDELSSIKQEPPHQLQQQQPPMDVQSVDSYTSDNPDSNVIAKSPDKRSSLVSLSKVSPHLLSSTSSNGNTISCPNVATNSQELEPNNDISTKKSLSNSTLRHSSANRNSNYGDNKRPLRTTVSKIFDSNPNGAPLRRYSGVPDHVNLEDYIEQPHNYPTMQNSVKKDEFYNSRNNKFPHGLNFYGDNNVIEEENNGDSSNVNRPQHTNLQHEFIPEDNESDENDIHSMFYYNHKNDLETKPLISDYGEDEDVDDYDRPNATFNSYYGSASNTHELPLHGRMPSRSNNDYYDFMVGNNTGNNNQLNEYTPLRMKRGQRHLSRTNNSIMNGSIHMNGNDDVTHSNINNNDIVGYSPHNFYSRKSPFVKVKNFLYLAFVISSLLMTGFILGFLLATNKELQDVDVVVMDNVISSSDELIFDITVSAFNPGFFSISVSQVDLDIFAKSSYLKCDSNGDCTVMEQERKILQITTNLSLVEESANNDISGGNIETVLLGTAKKLETPLKFQGGAFNRNYDVSVSSVKLLSPGSREAKHENDDDDDDDGDDGDDENNTNERQYKSKPNARDDKEDDTKKWKLLIKHDYELIVRGSMKYEVPFFNTQKSTAIQKDSMVHPGKK | binds | binds
Vps1 (protein, UniProt P21576 1-704) MDEHLISTINKLQDALAPLGGGSQSPIDLPQITVVGSQSSGKSSVLENIVGRDFLPRGTGIVTRRPLVLQLINRRPKKSEHAKVNQTANELIDLNINDDDKKKDESGKHQNEGQSEDNKEEWGEFLHLPGKKFYNFDEIRKEIVKETDKVTGANSGISSVPINLRIYSPHVLTLTLVDLPGLTKVPVGDQPPDIERQIKDMLLKYISKPNAIILSVNAANTDLANSDGLKLAREVDPEGTRTIGVLTKVDLMDQGTDVIDILAGRVIPLRYGYIPVINRGQKDIEHKKTIREALENERKFFENHPSYSSKAHYCGTPYLAKKLNSILLHHIRQTLPEIKAKIEATLKKYQNELINLGPETMDSASSVVLSMITDFSNEYAGILDGEAKELSSQELSGGARISYVFHETFKNGVDSLDPFDQIKDSDIRTIMYNSSGSAPSLFVGTEAFEVLVKQQIRRFEEPSLRLVTLVFDELVRMLKQIISQPKYSRYPALREAISNQFIQFLKDATIPTNEFVVDIIKAEQTYINTAHPDLLKGSQAMVMVEEKLHPRQVAVDPKTGKPLPTQPSSSKAPVMEEKSGFFGGFFSTKNKKKLAALESPPPVLKATGQMTERETMETEVIKLLISSYFSIVKRTIADIIPKALMLKLIVKSKTDIQKVLLEKLYGKQDIEELTKENDITIQRRKECKKMVEILRNASQIVSSV | binds | –
Age2 (protein, UniProt P40529 1-298) MSTSVPVKKALSALLRDPGNSHCADCKAQLHPRWASWSLGVFICIKCAGIHRSLGTHISKVKSVDLDTWKEEHLVKLIQFKNNLRANSYYEATLADELKQRKITDTSSLQNFIKNKYEYKKWIGDLSSIEGLNDSTEPVLHKPSANHSLPASNARLDQSSNSLQKTQTQPPSHLLSTSRSNTSLLNLQVSSLSKTTSNTSVTSSATSIGAANTKTGNRVGEFGQRNDLKKSILSLYSKPSAQTQSQNSFFTSTTPQPCNTPSPFVNTGITATNNNSMNSNSSSNISLDDNELFKNVWS | binds | binds
Apl6 (protein, UniProt P46682 1-809) MVDSIHRIASALDTAKVITREAAAVATSKLGESSYTYYSQNINPQQLVTLLNSRNSREVRDAMKRIISIMASDDDSIDVQLYFADVVKNITTNDTKVKRLIHLYLLRFAENDPNLTLLSINSLQKSLSDSNSELRCFALSALSDMKMSSLAPIILHTVKKLVTDPSAMVRGEVALAIIKLYRAGKNDYHEELLDILKELMADTDPKVISCAVLAYKECYADHLELLHGHFRRYCRIIKQLDSWSQSYLIELLIKYCKQYLPKPTVVDKSSEGSPRSCPLPDKYNEIEYPSYEVVNDPDLDLFLQSLNCLIYSSNPTVILSCCNALYQLASPLQMKNTKFIEALVRTVTMTENQGNKEMLLQAIHFLSILDQTLFLPYTKKFYVFPKDPIVASIWKIQILSTLINESNVKEIFKELKYYVASAHFPENVVIMAVKSLSRCGQLSTSWESHVMKWLIDHMESHNLSASVLDAYVNVIRMLVQKNPTKHLRIIFKLADLLTVQTSLADNARAGIVWLFGEIASIEFKICPDVLRRLIQNFSNEGPETRCQILVLSAKLLSYDIDNFKQAQVTGSEENNQNPPYYDFSGSRISQMYNAVLYLAKYDDEFDIRDRARMISSLFDSGKYEIVSLLLQAPKPTARSDDFIVSARLETHTPEIKEFFRMLPWNTEITEVGETGNDIREGAELKDYNKYKKSFSSQSFITNNSARSFTSSSNAKLTGINDGDSNSISGKGNVNTFTSQNGKKYRLQSLDEFFSDIPERKSKPRKIIKVVEESSDEDEDESEESSDDDEYSDSSLGTSSSGTSSSHLEL | binds | binds
Apm3 (protein, UniProt P38153 1-483) MYLSFYITDTKNKLIFQYLLGATAPSFKHLWTRVQSTCPQLLEDSSSDDYLDHSMVGRDLEVYKYFSVINKLNYWCLASTSKSKGPLDCFTFLETIDRILLEYFDKDKLSIKKIVNNYDRISLIFNCCVEAGEPNVSDMLYVNKIKEAVPERSDLSKFISSTAHNLQQAVQLPQQRQQQLQQNQISRGSNSLIENEEIVPWRTSRASKHENNELYVDLLETFHVVFEKKKSHLRLLTGSIHGIVDVRSYLNDNPLVAVKLNTMGNDIGIPSLHDCVEINDGVFSPSNITFIPPDGKFRLLEYSVDLSSQVKQSGVRMNSIGLMSLHFQNGLGKDSDEFELSLNIENFKKVSQVDDLKIDLQFNVENADPNEIAYKIKILRNTHGRFENSIIMGQGQWIFDKSTATGTVPVLRGCIEYENTGPNFTKKVDLQTVSLEYSYIGQSASGIYVEAIDIVSGLTIGKNTKLYKGAKYKTQTGNFQVRL | binds | –

These are yes or no findings as the source states them, for the method shown. In cells and extracts the contact can be indirect. A yes stands for co-enrichment or nearness to the bait. Other partners may have been found. Tags and fused reporters may be left off the sequences shown.
